The record followed here is patent US7056355B2, “Hair dye composition and dyeing method” (Kao Corporation, priority 2002, dated 2006).

“And” between values parts separate entries of the source, which are not always exact repeats. Equal values may be shown once. “Also recorded” adds a separate entry of the source.

The nature of data set [1]: Dyeing performance in General Formulation A on undamaged white goat hair (colour, L, a, b, delta E). The settings on record: for L / a / b: after dyeing; for L / a / b / Delta E: 50° C. 15 min; for Delta E: before vs after colouring; for Color of Dyed Hair: pH 10, 50° C. for 15 min.
Data set [2] in a line: Dyeing performance in General Formulation A on undamaged human blond hair (colour, L, a, b, delta E). The note with it: undamaged human blonde hair; for L / a / b: after dyeing; for L / a / b / Delta E: 50° C. 15 min; for Delta E: before vs after colouring; for Color of Dyed Hair: pH 10, 50° C. for 15 min.

Regarding `CS(=O)(=O)Nc1cccc2c(/N=N/c3ccc(S(C)(=O)=O)cc3C#N)ccc(O)c12` [Dye D-27], in data set [1], the L worked out at 37, the a was 10, the b is listed as −26 and the “Delta E” value was 63. In addition, in data set [1], the “Color of Dyed Hair” value is listed as “Bright Blue”. Besides, in data set [2], the L was determined as 32, the a is 2, the b is listed as −4 and the “Delta E” value is recorded as 23. Also, in data set [2], the “Color of Dyed Hair” value is given as “Blue”.

As to `COCCOc1ccc(/N=N/C2C(=O)N(c3ccccc3)N=C2C(N)=O)cc1S(N)(=O)=O` [Dye D-9], in data set [1], the L was found to be 83, the a is −2, the b is listed as 57 and the “Delta E” value stood at 44. Further, the “Color of Dyed Hair” value in data set [1] was “Bright Yellow”. For the same molecule, in data set [2], the L was 56, the a was 6, the b was 30 and the “Delta E” value is recorded as 16. In addition, in data set [2], the “Color of Dyed Hair” value is “Bright Yellow”.

As to `N#CC1=NN(c2ccccc2)C(=O)C1/N=N/c1cc(Cl)c(S(N)(=O)=O)cc1Cl` [Dye D-18], in data set [1], the L is recorded as 75, the a was found to be 18, the b is 66 and the “Delta E” value is 56. In addition, in data set [1], the “Color of Dyed Hair” value was “Yellow-Orange”. Moreover, in data set [2], the L came out at 62, the a was 6, the b is 34 and the “Delta E” value was determined as 23. The “Color of Dyed Hair” value in data set [2] is listed as “Yellow-Orange”.

For the molecule `COc1ccc(S(N)(=O)=O)cc1/N=N/C1C(=O)N(c2ccccc2)N=C1C#N` [Dye D-29], in data set [1], the L worked out at 80, the a came out at 3, the b amounted to 70 and the “Delta E” value was 56. For the same molecule, in data set [1], the “Color of Dyed Hair” value was “Bright Yellow”. Also, in data set [2], the L is 54, the a worked out at 7, the b is reported as 35 and the “Delta E” value is reported as 20. Besides, the “Color of Dyed Hair” value in data set [2] is given as “Bright Yellow”.

Turning to `CCOC(=O)Nc1cc(/N=N/c2ccc(S(C)(=O)=O)cc2C#N)c2c(NS(C)(=O)=O)cccc2c1O` [Dye D-24], in data set [1], the L is listed as 56, the a is given as −11, the b is on record as −16 and the “Delta E” value is 44. Moreover, the “Color of Dyed Hair” value in data set [1] was “Cyan”. In addition, in data set [2], the L is listed as 43, the a is −6, the b is 7 and the “Delta E” value was 16. In data set [2], the “Color of Dyed Hair” value is given as “Olive Brown”.

As for `N#CC1=NN(c2ccccc2)C(=O)C1/N=N/c1ccc(S(N)(=O)=O)cc1` [Dye D-6], in data set [1], the L is on record as 81; the a was found to be 0; the b is 72; the “Delta E” value is 58 and 59. In addition, in data set [1], the “Color of Dyed Hair” value is recorded as “Bright Yellow; also recorded: Very Intense”. Also, in data set [2], the L was 57, the a was determined as 7, the b is 41 and the “Delta E” value is 26. Also, in data set [2], the “Color of Dyed Hair” value is reported as “Bright Yellow; also recorded: Very Intense”.

Regarding `N#CC1=NN(c2ccccc2)C(=O)C1/N=N/c1ccc(C(=O)O)cc1` (stereo not drawn) [A*, reference compound], in data set [1], the L stood at 86, the a is reported as −6, the b is on record as 41 and the “Delta E” value is reported as 42. Moreover, the “Color of Dyed Hair” value in data set [1] is listed as “Pale Yellow”. Besides, in data set [2], the L came to 55, the a worked out at 7, the b was 26 and the “Delta E” value was 13. In data set [2], the “Color of Dyed Hair” value is reported as “Pale Yellow”.

Regarding `N#CC(/N=N/c1ccc(S(N)(=O)=O)cc1)C(=O)c1ccccc1` [Dye D-14], in data set [1], the L is listed as 84, the a was −11, the b turned out to be 65 and the “Delta E” value is listed as 52. Moreover, the “Color of Dyed Hair” value in data set [1] is listed as “Intense Yellow; also recorded: Very Intense Yellow”. For the same molecule, in data set [2], the L came out at 56, the a was determined as 4, the b was determined as 35 and the “Delta E” value amounted to 21. Also, the “Color of Dyed Hair” value in data set [2] is “Intense Yellow; also recorded: Very Intense”.

For the molecule `CS(=O)(=O)Nc1cccc2c(O)ccc(/N=N/c3ccc([N+](=O)[O-])cc3S(C)(=O)=O)c12` [Dye D-21], in data set [1], the L amounted to 37, the a was −17, the b is given as −18 and the “Delta E” value was determined as 60. Besides, in data set [1], the “Color of Dyed Hair” value is “Intense Cyan”. Moreover, in data set [2], the L is 35, the b is reported as −4, the “Delta E” value was 33 and the “Color of Dyed Hair” value is recorded as “Intense Cyan”.

For the molecule `Cc1nn2nc(C(C)(C)C)c(/N=N/c3cc(Cl)c(S(N)(=O)=O)cc3Cl)c2[nH]1` [Dye D-17], in data set [1], the L is recorded as 78, the a was found to be 7, the b came to 71 and the “Delta E” value is recorded as 57. In addition, the “Color of Dyed Hair” value in data set [1] is “Bright Gold”. In addition, in data set [2], the L was found to be 56, the a was 6, the b is given as 36 and the “Delta E” value amounted to 22. For the same molecule, the “Color of Dyed Hair” value in data set [2] is given as “Bright Gold”.

As for `N#CC1=NN(c2ccccc2)C(=O)C1/N=N/c1ccc(S(=O)(=O)[O-])cc1.[Na+]` (stereo not drawn) [B*, reference compound], in data set [1], the L came to 85, the a is on record as −5, the b worked out at 42 and the “Delta E” value is listed as 43. The “Color of Dyed Hair” value in data set [1] is listed as “Pale Yellow”. In data set [2], the L is given as 55, the a is 6, the b came out at 26 and the “Delta E” value was found to be 13. Further, in data set [2], the “Color of Dyed Hair” value is on record as “Pale Yellow”.

As to `Cc1nn2nc(C)c(/N=N/c3cc(Cl)c(S(N)(=O)=O)cc3Cl)c2[nH]1` [Dye D-16], in data set [1], the L turned out to be 82, the a is given as 1, the b came out at 66 and the “Delta E” value is 52. In data set [1], the “Color of Dyed Hair” value is “Bright Yellow”. In data set [2], the L turned out to be 60, the a was found to be 3, the b was 19 and the “Delta E” value came to 25. Besides, the “Color of Dyed Hair” value in data set [2] is recorded as “Bright Yellow”.

Take `CS(=O)(=O)c1cc([N+](=O)[O-])ccc1/N=N/c1ccc(O)c2cccc(S(=O)(=O)O)c12` [D*, reference compound]: in data set [1], the L is listed as 65, the a is given as −13, the b came out at 2 and the “Delta E” value worked out at 23. Also, the “Color of Dyed Hair” value in data set [1] is “Pale Cyan”. Further, in data set [2], the L is listed as 51, the a worked out at 2, the b turned out to be 19 and the “Delta E” value amounted to 7. The “Color of Dyed Hair” value in data set [2] is reported as “Pale Blonde”.

In the case of `CS(=O)(=O)Nc1cccc2c(O)c(C(=O)N3CCOCC3)cc(/N=N/c3ccc(Cl)cc3)c12` [Dye D-4], in data set [1], the L was 48, the a stood at 51, the b is given as −2 and the “Delta E” value is 65. For the same molecule, in data set [1], the “Color of Dyed Hair” value is on record as “Intense Pink”. Moreover, in data set [2], the L worked out at 33, the a was 31, the b amounted to 9 and the “Delta E” value was 28. In addition, the “Color of Dyed Hair” value in data set [2] is recorded as “Pink”.

In the case of `CCCN(CCC)S(=O)(=O)c1cc(/N=N/c2ccc(Cl)c(S(N)(=O)=O)c2)c2c(NS(C)(=O)=O)cccc2c1O` [Dye D-2], in data set [1], the L is recorded as 51, the a came to 44, the b is −10 and the “Delta E” value came out at 60. For the same molecule, the “Color of Dyed Hair” value in data set [1] is on record as “Bright Pink/Magenta”. Besides, in data set [2], the L came to 39, the a was found to be 21, the b was 8 and the “Delta E” value came out at 18. For the same molecule, the “Color of Dyed Hair” value in data set [2] is given as “Pink/Red”.

For `N#CC(/N=N/c1ccc(C(=O)O)cc1)C(=O)c1ccccc1` (stereo not drawn) [C*, reference compound], in data set [1], the L came to 87, the a is recorded as −6, the b is recorded as 31 and the “Delta E” value came to 19. For the same molecule, the “Color of Dyed Hair” value in data set [1] is reported as “Pale Yellow”. In data set [2], the L stood at 52, the a was 6, the b amounted to 25 and the “Delta E” value worked out at 12. The “Color of Dyed Hair” value in data set [2] is “Pale Yellow”.

For the molecule `NS(=O)(=O)c1cccc(S(=O)(=O)Nc2cccc3c(O)ccc(/N=N/c4ccc([N+](=O)[O-])cc4)c23)c1` [Dye D-22], in data set [1], the L was found to be 44, the a is −4, the b was −4 and the “Delta E” value is 45. The “Color of Dyed Hair” value in data set [1] was “Cyan”. In addition, in data set [2], the L was determined as 36, the a was −2, the b is listed as 7 and the “Delta E” value is 15. For the same molecule, the “Color of Dyed Hair” value in data set [2] is “Olive Brown”.

For `CS(=O)(=O)c1cc([N+](=O)[O-])ccc1/N=N/c1cc(S(=O)(=O)Nc2ccccc2)c2ccccc2c1O` [Dye D-23], in data set [1], the L is 44, the a is 9, the b was −22 and the “Delta E” value stood at 56. Moreover, the “Color of Dyed Hair” value in data set [1] is “Blue”. Further, in data set [2], the L was 36, the a was 2, the b is listed as 1 and the “Delta E” value came out at 17. Besides, in data set [2], the “Color of Dyed Hair” value is on record as “Ash Blue”.

For the molecule `Cc1nn2nc(C(C)(C)C)c(/N=N/c3ccc(S(N)(=O)=O)cc3)c2[nH]1` [Dye D-19], in data set [1], the L amounted to 82, the a is listed as −4, the b was 66 and the “Delta E” value is 52. The “Color of Dyed Hair” value in data set [1] is reported as “Intense Yellow”. Also, in data set [2], the L is 64, the a was 4, the b is given as 26 and the “Delta E” value was 20. Further, in data set [2], the “Color of Dyed Hair” value is given as “Intense Yellow”.
